Experimental data published in patent US6682740B1 (Yeda Research and Development Co. Ltd., priority 1997, dated 2004).
Plain letter strings leave the end groups untold.

Tests used:
[1] = general procedure: Boc solid-phase peptide synthesis; MBHA resin (0.73 mmoles/g); DCC; Asn, Gln and Arg as HOBt esters; conditions: whole synthesis, HPLC and CZE, scale of the general procedure about 0.1 mmol
[2] = general procedure: Boc solid-phase peptide synthesis; methyl-benzhydrylamine resin; DCC; Asn, Gln and Arg as HOBt esters; conditions: whole synthesis, scale about 0.1 mmol

Sequence: CNYITELRRQHARASHLGLAR
- final HPLC purity [1]: more than 96%
- crude mass [2]: 190 mg
